From patent publication US11046991B2, “Rapid preconcentration of viable bacteria using magnetic ionic liquid for PCR amplification and culture-based diagnostics” (priority 2017, dated 2021)
Some entries share one result that the patent states for a list of compounds. For at least one compound, name, drawing or mass did not settle the structure.

Test: Thermal stability, MIL film in GC capillary with flame ionization detection
Type: physicochemical
Method: The thermal stability of all exemplary MILs was tested by monitoring the thermal volatilization/decomposition of the MIL when the MIL was used as a stationary phase in gas chromatography. To achieve this, an approximate 0.25-0.28 μm film of IL/MIL was immobilized on the inner wall of a fused silica capillary. The IL/MIL coated capillary was then heated slowly in a GC oven and an ultra-sensitive flame ionization detector (FID) was used to detect any volatilization/decomposition of the IL/MIL. These tests were run using a temperature program starting at 40° C. and increased at 1° C./min to 350° C. on an Agilent 6850 gas chromatograph with a flame ionization detector (Santa Clara, Calif., USA). The [P66614^+] [Cl^−] IL was also coated under the same conditions and was used as a reference.

| SMILES | more rapid decomposition of the MIL occurring above |
| --- | --- |
| CCCCCCCCCCCCCC[P+](CCCCCC)(CCCCCC)CCCCCC.O=C(C=C([O-])C(F)(F)F)C(F)(F)F.O=C(C=C([O-])C(F)(F)F)C(F)(F)F.O=C(C=C([O-])C(F)(F)F)C(F)(F)F.O=C(C=C([O-])C(F)(F)F)C(F)(F)F.[Dy+3] [MIL 4, [P66614^+] tetrakis(hexafluoroacetylaceto)dysprosate(III)] | above 215 °C |
| CCCCCCCCCCCCCC[P+](CCCCCC)(CCCCCC)CCCCCC.O=C(C=C([O-])C(F)(F)F)C(F)(F)F.O=C(C=C([O-])C(F)(F)F)C(F)(F)F.O=C(C=C([O-])C(F)(F)F)C(F)(F)F.O=C(C=C([O-])C(F)(F)F)C(F)(F)F.[Gd+3] [MIL 5, [P66614^+] tetrakis(hexafluoroacetylaceto)gadolinate(III)] | above 215 °C |
